Where cells or extracts were used, other partners may take part.
Target: CD31 (PECAM-1) (UniProt P16284)
Test: binding assay
Conditions: positions printed as 6 (n in SEQ ID NO: 1) are modified bases, identity not stated in the supplied text; immunocytochemical staining at 600 nM; HUVECs stained, HepG2 and MSCs not stained; protein on the cell surface; protein details: endogenous on HUVECs; label: Cy5; single-stranded DNA

**Q.** Does “TCAGCCGCCAGCCAGTTCGTAGAGGAGGTACGTAATGTCTGGGTATACCCCGATAATTGACCAGAGCACCACAGAG [anti-CD31 aptamer]” bind?
**A.** Result: binds

— patent publication US20230285635
